Measured values as given in the supplement of paper PMC6411743.
± gives the standard deviation of the averaged measurements. This is one part of the list.

Amino acid sequences for entries named in this document (tags omitted). A change or cut given only in a name is not applied to a line headed by its entry.
UniProt Q14149: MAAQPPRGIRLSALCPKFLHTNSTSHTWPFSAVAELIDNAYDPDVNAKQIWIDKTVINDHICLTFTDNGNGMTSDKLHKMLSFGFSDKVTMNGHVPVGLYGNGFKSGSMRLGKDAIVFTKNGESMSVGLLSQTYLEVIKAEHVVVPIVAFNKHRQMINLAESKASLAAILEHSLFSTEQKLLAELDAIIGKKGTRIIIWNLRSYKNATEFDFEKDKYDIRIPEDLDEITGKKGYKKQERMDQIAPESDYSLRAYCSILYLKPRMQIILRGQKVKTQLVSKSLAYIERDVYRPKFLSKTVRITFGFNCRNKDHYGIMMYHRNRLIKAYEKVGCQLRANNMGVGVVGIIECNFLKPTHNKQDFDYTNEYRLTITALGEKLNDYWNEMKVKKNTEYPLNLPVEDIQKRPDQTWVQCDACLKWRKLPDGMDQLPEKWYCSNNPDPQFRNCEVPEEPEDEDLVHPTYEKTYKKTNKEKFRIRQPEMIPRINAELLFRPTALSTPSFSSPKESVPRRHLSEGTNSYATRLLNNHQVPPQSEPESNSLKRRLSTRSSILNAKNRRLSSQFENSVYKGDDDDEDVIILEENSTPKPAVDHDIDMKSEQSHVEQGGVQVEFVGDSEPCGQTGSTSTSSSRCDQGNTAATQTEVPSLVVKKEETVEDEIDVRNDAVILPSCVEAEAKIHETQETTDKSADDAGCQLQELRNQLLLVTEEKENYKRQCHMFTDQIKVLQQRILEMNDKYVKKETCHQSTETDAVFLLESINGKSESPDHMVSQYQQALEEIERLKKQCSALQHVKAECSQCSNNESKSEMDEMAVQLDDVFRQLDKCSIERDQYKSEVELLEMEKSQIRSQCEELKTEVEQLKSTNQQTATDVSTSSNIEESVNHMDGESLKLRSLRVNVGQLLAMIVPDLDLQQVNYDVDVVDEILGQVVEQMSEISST
UniProt Q12872: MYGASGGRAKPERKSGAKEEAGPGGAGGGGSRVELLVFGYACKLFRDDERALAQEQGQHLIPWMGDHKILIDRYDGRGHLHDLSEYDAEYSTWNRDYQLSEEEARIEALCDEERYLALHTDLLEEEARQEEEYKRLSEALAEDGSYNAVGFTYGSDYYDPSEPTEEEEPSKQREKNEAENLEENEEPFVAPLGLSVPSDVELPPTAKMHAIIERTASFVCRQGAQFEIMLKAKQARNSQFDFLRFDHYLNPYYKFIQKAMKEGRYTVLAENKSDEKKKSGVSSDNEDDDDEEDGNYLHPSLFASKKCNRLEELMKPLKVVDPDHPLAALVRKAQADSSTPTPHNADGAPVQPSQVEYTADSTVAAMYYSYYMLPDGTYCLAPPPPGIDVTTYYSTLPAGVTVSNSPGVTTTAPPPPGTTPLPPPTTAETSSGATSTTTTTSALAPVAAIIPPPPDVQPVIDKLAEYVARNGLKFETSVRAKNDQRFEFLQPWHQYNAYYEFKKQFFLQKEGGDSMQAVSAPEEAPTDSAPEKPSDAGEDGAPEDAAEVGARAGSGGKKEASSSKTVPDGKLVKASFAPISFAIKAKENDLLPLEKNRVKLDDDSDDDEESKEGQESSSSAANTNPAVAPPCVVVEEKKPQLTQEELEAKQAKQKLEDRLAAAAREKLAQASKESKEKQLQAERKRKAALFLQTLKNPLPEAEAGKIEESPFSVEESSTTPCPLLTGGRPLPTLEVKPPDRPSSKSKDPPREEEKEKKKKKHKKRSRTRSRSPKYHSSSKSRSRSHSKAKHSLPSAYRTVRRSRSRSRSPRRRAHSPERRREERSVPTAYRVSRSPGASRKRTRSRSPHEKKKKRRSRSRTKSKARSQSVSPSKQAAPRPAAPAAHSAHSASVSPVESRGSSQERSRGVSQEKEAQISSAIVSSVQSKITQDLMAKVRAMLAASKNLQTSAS
UniProt Q14161: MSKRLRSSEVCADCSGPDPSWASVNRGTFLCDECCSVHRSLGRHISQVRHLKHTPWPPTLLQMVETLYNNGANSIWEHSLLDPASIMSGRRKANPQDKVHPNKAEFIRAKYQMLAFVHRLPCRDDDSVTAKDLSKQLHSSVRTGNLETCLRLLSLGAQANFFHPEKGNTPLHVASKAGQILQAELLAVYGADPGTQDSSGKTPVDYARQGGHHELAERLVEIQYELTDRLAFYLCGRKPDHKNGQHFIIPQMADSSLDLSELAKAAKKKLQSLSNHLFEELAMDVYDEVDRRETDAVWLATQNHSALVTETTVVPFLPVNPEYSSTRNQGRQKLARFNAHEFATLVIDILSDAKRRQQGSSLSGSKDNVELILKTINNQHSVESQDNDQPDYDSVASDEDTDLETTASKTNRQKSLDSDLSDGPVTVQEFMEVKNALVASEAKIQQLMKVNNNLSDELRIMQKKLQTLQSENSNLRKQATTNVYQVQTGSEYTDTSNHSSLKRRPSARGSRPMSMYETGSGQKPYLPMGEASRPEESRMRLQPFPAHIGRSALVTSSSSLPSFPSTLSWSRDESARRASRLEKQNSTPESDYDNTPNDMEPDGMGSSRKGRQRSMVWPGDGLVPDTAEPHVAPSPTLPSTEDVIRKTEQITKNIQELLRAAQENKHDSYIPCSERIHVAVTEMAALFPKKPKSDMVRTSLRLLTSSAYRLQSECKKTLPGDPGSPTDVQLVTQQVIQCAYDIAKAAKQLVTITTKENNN
UniProt Q12800: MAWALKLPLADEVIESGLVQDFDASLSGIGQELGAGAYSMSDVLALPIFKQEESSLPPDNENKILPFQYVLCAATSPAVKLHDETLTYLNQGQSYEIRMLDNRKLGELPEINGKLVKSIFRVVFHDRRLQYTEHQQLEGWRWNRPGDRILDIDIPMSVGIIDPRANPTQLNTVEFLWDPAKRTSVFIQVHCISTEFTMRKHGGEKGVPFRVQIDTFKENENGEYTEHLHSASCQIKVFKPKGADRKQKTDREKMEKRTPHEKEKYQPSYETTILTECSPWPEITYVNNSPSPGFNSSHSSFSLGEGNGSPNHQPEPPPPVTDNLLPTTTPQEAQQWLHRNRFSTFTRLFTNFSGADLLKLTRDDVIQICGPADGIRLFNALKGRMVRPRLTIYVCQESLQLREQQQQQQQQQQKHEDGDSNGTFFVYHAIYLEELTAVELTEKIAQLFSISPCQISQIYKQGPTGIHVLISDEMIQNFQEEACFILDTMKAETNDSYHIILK
UniProt Q13868, whole entry: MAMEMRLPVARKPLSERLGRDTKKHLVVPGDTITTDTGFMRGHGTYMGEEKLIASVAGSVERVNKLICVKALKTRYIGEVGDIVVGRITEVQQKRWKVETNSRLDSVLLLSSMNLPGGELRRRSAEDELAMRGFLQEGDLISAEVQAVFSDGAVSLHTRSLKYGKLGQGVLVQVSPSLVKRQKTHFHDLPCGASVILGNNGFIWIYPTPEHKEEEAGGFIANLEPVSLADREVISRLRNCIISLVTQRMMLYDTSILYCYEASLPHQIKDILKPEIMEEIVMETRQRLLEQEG
UniProt Q12986: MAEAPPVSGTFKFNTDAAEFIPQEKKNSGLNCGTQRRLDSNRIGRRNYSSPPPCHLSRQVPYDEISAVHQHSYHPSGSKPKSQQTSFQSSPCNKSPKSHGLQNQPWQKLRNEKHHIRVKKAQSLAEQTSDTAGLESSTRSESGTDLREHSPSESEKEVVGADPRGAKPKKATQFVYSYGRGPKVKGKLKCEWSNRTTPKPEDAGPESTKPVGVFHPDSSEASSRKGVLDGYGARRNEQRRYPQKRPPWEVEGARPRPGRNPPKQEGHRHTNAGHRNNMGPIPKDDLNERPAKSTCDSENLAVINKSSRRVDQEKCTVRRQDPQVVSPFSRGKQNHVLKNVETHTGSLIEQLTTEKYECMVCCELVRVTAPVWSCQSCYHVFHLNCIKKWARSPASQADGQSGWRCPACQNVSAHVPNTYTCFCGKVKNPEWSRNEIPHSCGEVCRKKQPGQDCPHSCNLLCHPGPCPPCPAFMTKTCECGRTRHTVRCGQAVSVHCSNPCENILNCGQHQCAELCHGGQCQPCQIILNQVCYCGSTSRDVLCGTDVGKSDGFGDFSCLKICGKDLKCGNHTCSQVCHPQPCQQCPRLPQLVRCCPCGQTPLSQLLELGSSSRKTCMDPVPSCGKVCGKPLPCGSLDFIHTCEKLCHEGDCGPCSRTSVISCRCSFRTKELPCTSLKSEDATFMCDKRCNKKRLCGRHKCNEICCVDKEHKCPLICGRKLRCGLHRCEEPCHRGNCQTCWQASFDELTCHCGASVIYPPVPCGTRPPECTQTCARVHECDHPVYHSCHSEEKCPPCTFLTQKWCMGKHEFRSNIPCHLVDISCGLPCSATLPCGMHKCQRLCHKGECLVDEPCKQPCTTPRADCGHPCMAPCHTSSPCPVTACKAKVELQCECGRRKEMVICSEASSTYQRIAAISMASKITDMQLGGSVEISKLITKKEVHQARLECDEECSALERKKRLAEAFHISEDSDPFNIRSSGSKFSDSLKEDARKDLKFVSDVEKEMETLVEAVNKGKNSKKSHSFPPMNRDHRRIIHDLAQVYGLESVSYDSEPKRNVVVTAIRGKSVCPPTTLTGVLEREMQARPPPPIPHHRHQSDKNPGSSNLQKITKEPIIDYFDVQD
UniProt Q13257, whole entry: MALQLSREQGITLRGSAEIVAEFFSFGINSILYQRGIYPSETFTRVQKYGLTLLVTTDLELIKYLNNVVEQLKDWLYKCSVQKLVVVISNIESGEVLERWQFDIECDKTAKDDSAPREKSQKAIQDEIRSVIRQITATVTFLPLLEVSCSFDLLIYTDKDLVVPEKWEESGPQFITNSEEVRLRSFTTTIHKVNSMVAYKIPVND
UniProt Q14289, whole entry, looked up: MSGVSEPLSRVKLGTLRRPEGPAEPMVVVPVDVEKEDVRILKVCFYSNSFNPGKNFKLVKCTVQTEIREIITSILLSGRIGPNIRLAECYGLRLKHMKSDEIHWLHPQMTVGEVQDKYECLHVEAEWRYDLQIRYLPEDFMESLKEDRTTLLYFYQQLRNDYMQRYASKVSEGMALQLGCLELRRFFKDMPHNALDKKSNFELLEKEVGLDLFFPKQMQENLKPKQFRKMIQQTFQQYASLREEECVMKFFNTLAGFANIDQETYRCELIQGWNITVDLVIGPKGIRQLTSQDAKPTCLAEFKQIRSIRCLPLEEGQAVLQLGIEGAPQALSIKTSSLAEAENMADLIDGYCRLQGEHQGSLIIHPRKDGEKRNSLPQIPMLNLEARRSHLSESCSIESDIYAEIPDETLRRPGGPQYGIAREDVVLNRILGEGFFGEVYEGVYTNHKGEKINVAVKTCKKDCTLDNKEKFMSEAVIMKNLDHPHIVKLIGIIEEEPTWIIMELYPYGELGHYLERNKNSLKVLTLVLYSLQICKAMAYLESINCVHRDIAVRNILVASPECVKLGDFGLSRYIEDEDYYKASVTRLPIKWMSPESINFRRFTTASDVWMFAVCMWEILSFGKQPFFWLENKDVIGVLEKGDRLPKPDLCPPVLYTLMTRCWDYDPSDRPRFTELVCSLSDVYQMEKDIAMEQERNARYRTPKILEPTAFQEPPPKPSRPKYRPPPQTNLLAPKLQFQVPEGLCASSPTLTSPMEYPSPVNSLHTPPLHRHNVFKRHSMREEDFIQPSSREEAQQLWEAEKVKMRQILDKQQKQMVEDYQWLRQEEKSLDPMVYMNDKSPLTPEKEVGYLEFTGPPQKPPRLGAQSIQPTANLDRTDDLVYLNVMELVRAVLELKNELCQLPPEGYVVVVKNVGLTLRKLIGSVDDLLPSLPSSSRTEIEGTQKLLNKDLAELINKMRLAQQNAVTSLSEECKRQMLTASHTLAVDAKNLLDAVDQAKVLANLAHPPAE
UniProt Q13011: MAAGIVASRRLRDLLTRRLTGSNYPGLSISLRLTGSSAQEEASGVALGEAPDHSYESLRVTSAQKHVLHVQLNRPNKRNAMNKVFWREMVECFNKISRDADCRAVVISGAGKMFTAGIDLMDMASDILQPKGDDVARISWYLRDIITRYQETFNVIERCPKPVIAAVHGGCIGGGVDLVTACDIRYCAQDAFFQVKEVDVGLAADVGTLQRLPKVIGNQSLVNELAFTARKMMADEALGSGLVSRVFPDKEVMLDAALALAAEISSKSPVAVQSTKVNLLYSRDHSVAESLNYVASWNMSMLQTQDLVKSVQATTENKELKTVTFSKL
UniProt Q01196, whole entry: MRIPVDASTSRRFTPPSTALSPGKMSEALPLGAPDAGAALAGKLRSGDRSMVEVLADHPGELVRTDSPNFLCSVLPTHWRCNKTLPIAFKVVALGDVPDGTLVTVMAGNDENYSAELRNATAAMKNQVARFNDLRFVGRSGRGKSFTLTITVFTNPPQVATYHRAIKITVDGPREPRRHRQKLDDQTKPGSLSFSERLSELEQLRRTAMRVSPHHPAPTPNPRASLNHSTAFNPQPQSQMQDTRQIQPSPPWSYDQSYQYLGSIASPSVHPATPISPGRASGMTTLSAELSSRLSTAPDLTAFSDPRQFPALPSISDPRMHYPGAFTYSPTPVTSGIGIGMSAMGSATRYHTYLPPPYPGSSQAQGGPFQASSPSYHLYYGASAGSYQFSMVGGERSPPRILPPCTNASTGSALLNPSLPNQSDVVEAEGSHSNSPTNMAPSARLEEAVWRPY

These targets were tested with Nc1nc2c(ncn2[C@@H]2O[C@H](COP(=O)(O)OP(=O)(O)OP(=O)(O)O)[C@@H](O)[C@H]2O)c(=O)[nH]1 [guanosine triphosphate] (assay: NP40-soluble protein abundance relative to vehicle (solubility fold change) (ratio); higher = more soluble protein in presence of GTP). Settings: concentration: 4mM.
In short: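 Jurkat crude lysate (Dounce-homogenised) was treated with eight concentrations from 0.1 to 10 mM for 10 min at room temperature, then 3 min at 37 °C. It was solubilised with 0.8% NP40 and benzonase (60 min, 4 °C) and ultracentrifuged, and the supernatant was TMT-labelled for LC-MS/MS. Intensities were vsn-normalised, and the value is the fold change against the NP40-processed vehicle per replicate, from three independent experiments.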

Target	NP40-soluble protein abundance
SOX4 (UniProt Q06945)	0.94 ± 0.12
MORC3 (UniProt Q14149)	1.01 ± 0.078
UniProt Q12872 and related entries	1.42 ± 0.016
UniProt Q03933-2	0.989 ± 0.021
CD47 (UniProt Q08722)	0.802 ± 0.076
UniProt Q14161 and related entries	0.976 ± 0.068
MTM1 (UniProt Q13496)	0.933 ± 0.093
UniProt Q14677 and related entries	0.932 ± 0.098
IK (UniProt Q13123)	1.08 ± 0.059
UniProt Q14444 and related entries	1.02 ± 0.088
UniProt Q12800 and related entries	1.04 ± 0.07
UniProt Q14139 and related entries	1 ± 0.046
UniProt Q13868 and related entries	1.07 ± 0.026
UniProt Q13588 and related entries	0.992 ± 0.051
FHL3 (UniProt Q13643)	1.11 ± 0.2
UniProt Q14197	1.58 ± 0.56
ITK (UniProt Q08881)	0.915 ± 0.1
SAFB2 (UniProt Q14151)	1.04 ± 0.084
UniProt Q01813 and related entries	1.06 ± 0.084

An excerpt of these results, as comma-separated lines.
Target,NP40-soluble protein abundance
MORC3 (UniProt Q14149),1.01 ± 0.078
UniProt Q12872 and related entries,1.42 ± 0.016

Continued.

Target	NP40-soluble protein abundance
UniProt Q02447-3	0.983 ± 0.049
UniProt Q14669-2|Q14669-3	1.23 ± 0.089
THOC5 (UniProt Q13769)	2.21 ± 0.56
DHX34 (UniProt Q14147)	1.14 ± 0.04
NFX1 (UniProt Q12986)	1.31 ± 0.041
UniProt Q02252 and related entries	0.919 ± 0.041
AHNAK (UniProt Q09666)	0.973 ± 0.072
UniProt Q14247 and related entries	1.07 ± 0.065
MAD2L1 (UniProt Q13257)	0.921 ± 0.088
PMPCA (UniProt Q10713)	0.915 ± 0.036
UniProt Q14289-2|Q14289	0.949 ± 0.041
UniProt Q13085 and related entries	1.05 ± 0.11
ECH1 (UniProt Q13011)	0.914 ± 0.058
PPID (UniProt Q08752)	0.841 ± 0.073
DNAJC3 (UniProt Q13217)	0.869 ± 0.033
UniProt Q01196-11|Q01196-8|Q01196	1.13 ± 0.07
RNASEL (UniProt Q05823)	1.04 ± 0.022
UniProt Q01968 and related entries	1.1 ± 0.018
